Measurements as given in the supplement of paper PMC12067093, “Discovery and optimisation of a covalent ligand for TRIM25 and its application to targeted protein ubiquitination” (Chemical Science, 2025).
This is one part of the list.

Chains of the proteins cited; added tags and fusions are not shown. Lines headed by an entry give the natural chain unless they say otherwise; changes in a name come on top.
UniProt O43913: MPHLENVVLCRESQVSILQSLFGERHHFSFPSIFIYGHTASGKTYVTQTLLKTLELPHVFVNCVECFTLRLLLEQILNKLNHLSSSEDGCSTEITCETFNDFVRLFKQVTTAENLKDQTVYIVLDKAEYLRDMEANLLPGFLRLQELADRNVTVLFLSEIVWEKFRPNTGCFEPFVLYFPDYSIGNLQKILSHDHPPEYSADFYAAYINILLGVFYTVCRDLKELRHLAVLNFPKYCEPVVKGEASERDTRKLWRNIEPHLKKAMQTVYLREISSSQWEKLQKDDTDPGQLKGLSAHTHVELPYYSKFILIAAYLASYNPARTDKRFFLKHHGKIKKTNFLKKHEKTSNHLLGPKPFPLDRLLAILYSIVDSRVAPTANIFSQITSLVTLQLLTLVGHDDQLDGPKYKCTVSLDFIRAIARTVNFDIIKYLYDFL
UniProt P43034: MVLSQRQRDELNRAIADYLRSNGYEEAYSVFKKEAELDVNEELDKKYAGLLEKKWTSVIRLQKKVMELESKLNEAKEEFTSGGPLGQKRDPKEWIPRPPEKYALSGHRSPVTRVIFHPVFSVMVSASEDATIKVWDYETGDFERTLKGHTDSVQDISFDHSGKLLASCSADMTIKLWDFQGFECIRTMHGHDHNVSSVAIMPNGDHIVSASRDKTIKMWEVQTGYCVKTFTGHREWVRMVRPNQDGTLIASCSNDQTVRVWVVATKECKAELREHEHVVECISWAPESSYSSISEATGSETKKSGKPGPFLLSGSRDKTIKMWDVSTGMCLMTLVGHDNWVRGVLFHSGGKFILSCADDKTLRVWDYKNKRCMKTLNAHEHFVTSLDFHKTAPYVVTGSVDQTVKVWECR
UniProt Q92882: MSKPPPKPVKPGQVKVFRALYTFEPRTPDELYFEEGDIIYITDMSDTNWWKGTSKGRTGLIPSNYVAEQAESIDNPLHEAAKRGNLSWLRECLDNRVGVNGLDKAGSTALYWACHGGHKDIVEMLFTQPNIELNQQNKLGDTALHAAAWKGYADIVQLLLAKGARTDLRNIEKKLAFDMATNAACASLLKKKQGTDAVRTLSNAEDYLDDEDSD
UniProt Q32P28: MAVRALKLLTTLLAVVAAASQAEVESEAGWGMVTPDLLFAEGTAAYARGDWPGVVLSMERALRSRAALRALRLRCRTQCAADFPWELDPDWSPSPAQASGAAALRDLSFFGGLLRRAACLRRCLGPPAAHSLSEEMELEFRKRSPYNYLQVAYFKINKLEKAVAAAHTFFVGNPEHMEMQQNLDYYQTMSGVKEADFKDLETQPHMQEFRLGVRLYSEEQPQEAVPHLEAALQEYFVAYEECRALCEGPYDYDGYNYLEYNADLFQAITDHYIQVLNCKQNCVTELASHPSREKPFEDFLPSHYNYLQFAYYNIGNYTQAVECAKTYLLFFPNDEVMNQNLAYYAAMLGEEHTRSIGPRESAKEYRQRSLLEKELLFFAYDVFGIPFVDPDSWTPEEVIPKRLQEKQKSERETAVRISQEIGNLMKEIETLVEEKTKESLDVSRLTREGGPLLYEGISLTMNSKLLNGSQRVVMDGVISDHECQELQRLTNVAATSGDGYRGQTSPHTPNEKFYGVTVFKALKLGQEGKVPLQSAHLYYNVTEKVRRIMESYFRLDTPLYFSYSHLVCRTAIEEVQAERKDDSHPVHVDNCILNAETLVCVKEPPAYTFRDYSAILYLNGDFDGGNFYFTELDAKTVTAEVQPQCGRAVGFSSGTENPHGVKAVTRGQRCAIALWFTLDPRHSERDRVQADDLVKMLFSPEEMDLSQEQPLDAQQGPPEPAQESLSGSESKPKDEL
UniProt Q9UNF0: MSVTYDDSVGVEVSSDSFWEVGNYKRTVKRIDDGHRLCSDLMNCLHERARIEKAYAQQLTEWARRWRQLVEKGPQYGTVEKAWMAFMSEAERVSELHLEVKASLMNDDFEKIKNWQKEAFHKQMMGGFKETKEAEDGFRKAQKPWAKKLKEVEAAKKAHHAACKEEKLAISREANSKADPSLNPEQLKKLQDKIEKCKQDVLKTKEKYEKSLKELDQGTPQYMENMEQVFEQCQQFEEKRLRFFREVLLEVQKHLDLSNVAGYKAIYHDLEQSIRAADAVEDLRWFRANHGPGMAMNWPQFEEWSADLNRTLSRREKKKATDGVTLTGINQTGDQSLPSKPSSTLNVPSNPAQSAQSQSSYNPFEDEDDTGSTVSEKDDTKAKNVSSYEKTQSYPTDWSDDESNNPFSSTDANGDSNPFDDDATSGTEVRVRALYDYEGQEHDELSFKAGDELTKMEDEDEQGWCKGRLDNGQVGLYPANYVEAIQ
UniProt Q99497, whole entry, looked up: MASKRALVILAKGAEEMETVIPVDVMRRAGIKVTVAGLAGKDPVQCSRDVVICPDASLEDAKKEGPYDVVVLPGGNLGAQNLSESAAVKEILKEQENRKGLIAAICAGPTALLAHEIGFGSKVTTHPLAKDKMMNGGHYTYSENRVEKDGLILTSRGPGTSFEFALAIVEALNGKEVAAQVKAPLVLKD
UniProt Q9BZF1: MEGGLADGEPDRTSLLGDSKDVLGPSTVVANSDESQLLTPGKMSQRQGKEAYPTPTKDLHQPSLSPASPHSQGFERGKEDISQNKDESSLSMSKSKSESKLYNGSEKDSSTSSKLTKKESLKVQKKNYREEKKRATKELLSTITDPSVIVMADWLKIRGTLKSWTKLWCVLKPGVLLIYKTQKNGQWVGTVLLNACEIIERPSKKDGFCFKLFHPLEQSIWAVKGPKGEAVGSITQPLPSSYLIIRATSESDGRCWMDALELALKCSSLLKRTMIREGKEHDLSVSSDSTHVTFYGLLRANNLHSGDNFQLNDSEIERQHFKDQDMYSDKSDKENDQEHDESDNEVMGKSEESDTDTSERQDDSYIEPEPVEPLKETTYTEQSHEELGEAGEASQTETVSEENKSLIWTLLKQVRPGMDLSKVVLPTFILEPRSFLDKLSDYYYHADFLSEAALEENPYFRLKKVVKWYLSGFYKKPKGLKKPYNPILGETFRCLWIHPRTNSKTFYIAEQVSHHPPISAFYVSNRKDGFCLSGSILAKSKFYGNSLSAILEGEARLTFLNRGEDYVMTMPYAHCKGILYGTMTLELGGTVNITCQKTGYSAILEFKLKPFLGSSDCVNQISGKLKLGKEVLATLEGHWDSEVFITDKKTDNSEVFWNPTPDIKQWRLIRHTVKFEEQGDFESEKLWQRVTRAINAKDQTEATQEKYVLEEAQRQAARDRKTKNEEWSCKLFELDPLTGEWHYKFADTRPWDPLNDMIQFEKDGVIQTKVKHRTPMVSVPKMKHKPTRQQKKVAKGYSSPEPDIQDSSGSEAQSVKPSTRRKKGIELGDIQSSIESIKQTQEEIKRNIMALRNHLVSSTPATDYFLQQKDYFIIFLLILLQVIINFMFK
UniProt P22234: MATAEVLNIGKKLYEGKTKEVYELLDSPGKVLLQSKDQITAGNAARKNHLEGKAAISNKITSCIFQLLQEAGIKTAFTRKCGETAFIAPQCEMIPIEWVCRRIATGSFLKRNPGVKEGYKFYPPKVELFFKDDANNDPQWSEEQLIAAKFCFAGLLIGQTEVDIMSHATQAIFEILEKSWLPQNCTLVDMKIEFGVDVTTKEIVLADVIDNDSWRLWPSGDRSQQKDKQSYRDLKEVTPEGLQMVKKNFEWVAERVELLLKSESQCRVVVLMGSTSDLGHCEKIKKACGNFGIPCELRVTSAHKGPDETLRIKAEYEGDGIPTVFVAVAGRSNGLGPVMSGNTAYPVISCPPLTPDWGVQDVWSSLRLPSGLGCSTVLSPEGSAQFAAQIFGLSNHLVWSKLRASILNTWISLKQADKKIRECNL
UniProt Q9Y5N6: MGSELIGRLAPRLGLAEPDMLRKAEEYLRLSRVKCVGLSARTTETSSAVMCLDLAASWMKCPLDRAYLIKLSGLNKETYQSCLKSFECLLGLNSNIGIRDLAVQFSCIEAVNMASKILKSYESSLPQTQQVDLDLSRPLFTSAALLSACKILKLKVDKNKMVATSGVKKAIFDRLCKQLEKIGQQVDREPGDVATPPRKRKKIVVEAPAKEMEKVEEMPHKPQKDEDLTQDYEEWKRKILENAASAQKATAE
UniProt Q96SU4: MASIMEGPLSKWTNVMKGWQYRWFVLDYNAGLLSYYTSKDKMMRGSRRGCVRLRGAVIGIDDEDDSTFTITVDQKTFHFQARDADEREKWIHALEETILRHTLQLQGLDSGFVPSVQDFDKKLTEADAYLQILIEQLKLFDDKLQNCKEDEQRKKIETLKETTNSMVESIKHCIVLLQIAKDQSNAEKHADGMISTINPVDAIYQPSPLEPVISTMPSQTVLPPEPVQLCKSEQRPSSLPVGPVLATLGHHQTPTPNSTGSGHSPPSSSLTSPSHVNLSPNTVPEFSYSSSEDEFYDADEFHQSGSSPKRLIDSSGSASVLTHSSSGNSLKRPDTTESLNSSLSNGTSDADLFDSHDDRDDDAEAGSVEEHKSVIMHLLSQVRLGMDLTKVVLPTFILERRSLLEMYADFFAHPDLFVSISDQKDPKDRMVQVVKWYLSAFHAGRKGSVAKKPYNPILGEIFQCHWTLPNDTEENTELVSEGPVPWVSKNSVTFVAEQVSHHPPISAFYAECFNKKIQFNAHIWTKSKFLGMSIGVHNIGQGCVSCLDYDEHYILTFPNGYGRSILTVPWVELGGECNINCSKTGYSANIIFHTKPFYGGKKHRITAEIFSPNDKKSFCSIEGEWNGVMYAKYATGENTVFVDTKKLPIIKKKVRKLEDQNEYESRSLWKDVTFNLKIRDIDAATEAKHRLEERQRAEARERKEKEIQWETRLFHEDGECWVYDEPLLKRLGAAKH
UniProt Q9H4B0: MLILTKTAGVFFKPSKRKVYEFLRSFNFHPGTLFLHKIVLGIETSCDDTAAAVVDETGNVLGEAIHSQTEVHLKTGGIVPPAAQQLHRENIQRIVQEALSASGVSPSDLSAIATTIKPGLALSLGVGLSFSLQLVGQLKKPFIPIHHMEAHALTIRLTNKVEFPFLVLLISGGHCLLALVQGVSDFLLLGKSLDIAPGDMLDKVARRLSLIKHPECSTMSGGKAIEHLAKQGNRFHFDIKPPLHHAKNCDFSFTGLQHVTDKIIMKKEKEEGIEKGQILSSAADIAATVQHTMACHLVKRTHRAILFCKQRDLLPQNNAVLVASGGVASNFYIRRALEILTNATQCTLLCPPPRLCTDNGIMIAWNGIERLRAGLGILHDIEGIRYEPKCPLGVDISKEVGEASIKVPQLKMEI
UniProt Q9NXG6: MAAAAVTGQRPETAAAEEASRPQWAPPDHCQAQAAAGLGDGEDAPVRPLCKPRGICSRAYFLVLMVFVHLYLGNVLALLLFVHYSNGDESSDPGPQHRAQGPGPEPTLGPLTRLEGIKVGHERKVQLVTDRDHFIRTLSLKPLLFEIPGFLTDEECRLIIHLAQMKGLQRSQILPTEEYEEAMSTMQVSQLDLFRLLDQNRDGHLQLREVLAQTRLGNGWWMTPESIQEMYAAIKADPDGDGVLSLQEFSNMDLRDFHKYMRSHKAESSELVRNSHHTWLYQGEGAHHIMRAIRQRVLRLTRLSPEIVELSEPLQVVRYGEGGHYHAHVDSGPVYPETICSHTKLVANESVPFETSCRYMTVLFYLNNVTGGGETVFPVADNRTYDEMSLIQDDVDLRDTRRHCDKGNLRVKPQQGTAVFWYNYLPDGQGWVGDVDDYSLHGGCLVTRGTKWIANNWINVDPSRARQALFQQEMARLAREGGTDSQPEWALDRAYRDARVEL
UniProt Q9ULE6: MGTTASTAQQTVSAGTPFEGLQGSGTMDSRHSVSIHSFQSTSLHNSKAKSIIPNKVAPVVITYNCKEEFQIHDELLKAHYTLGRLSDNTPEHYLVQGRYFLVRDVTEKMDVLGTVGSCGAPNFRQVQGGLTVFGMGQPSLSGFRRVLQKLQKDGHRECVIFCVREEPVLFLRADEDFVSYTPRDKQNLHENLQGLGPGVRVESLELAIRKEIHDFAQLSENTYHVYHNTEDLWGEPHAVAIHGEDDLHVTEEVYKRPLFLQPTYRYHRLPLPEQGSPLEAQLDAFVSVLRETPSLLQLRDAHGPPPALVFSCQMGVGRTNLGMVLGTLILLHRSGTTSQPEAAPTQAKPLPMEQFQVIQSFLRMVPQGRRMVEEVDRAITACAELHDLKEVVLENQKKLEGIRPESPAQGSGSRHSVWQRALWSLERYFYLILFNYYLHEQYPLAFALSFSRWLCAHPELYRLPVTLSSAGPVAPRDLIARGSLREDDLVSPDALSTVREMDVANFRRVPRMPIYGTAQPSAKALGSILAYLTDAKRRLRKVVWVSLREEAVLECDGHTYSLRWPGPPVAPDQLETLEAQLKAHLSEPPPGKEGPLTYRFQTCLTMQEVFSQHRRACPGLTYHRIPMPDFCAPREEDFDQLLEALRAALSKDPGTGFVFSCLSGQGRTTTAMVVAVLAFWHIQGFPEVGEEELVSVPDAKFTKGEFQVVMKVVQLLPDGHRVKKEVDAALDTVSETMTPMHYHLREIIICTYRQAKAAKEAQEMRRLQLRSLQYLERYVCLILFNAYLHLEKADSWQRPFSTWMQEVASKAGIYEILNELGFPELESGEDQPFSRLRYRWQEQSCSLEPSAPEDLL

Compound: Cc1cc(ccc1-c1ccccc1)C(=O)N1CCCN(CC1)C(=O)CCl [compound 10]
Assay: probe-labelled cysteine peptide fold change vs DMSO (competition) (log2 fold change); higher = less target engagement (more negative = stronger competition)
Details: THP-1, incubation time: 4 h
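Further: competitive profiling in live THP-1 cells: cysteine peptides tagged with an iodoacetamide desthiobiotin (IA-DTB) probe, intensity after compound treatment relative to DMSO-treated cells.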

Target	probe-labelled cysteine peptide fold change (10 µM)	probe-labelled cysteine peptide fold change (50 µM)
OSBPL1A_Q9BXW6_289_HLTQAVCTVK (UniProt Q9BXW6)	0.0171	0.0205
ORC5_O43913_10_PHLENVVLCR (UniProt O43913)	-0.0685	0.186
PAG1_Q9NWQ8_179_DSSSQENMVEDCLYETVK (UniProt Q9NWQ8)	-0.312	-0.763
PAFAH1B1_P43034_168_LLASCSADMTIK (UniProt P43034)	-0.0343	0.213
OSBP_P22059_224_VEDLSTCNDLIAK (UniProt P22059)	-0.0373	0.0508
OSTF1_Q92882_185_LAFDMATNAACASLLK (UniProt Q92882)	0.12	0.142
OSBPL1A_Q9BXW6_746_PCGLFGK (UniProt Q9BXW6)	0.0257	0.329
P3H1_Q32P28_600_KDDSHPVHVDNCILNAETLVCVK (UniProt Q32P28)	-0.12	-0.00152
PACSIN2_Q9UNF0_465_MEDEDEQGWCK (UniProt Q9UNF0)	0.113	0.287
PAFAH2_Q99487_298_ICAQHEQSR (UniProt Q99487)	0.124	0.261
OSTF1_Q92882_114_AGSTALYWACHGGHK (UniProt Q92882)	0.145	0.00992
PARK7_Q99497_53_DVVICPDASLEDAKK (UniProt Q99497)	-0.244	-0.143
OSBPL8_Q9BZF1_729_NEEWSCK (UniProt Q9BZF1)	-0.0698	0.188
PARP14_Q460N5_208_FVDDCTK (UniProt Q460N5)	-0.214	-0.245
OSBPL8_Q9BZF1_494_CLWIHPR (UniProt Q9BZF1)	-0.0195	0.0461
PAPOLA_P51003_677_TKTEEDETSEDANCLALSGHDK (UniProt P51003)	-0.0797	-0.359
OSBPL5_Q9H0X9_459_CCWFHPQTDSR (UniProt Q9H0X9)	0.0375	-0.0634
PAPSS2_O95340_155_KIHESAGLPFFEIFVDAPLNICESR (UniProt O95340)	-0.104	-0.273
OPHN1_O60890_11_GHPPLEFSDCYLDSPDFR (UniProt O60890)	0.105	0.129
PARP4_Q9UKK3_1099_LLVYGFIPHCTQATLCALIQEK (UniProt Q9UKK3)	0.15	0.11
PAK2_Q13177_352_ECLQALEFLHANQVIHR (UniProt Q13177)	0.441	0.0289

Shown as comma-separated lines: entries from further up
Target,probe-labelled cysteine peptide fold change (10 µM),probe-labelled cysteine peptide fold change (50 µM)
PACSIN2_Q9UNF0_465_MEDEDEQGWCK (UniProt Q9UNF0),0.113,0.287
PAFAH2_Q99487_298_ICAQHEQSR (UniProt Q99487),0.124,0.261

Following part.

Target	probe-labelled cysteine peptide fold change (10 µM)	probe-labelled cysteine peptide fold change (50 µM)
PAOX_Q6QHF9_33_LCGHSAFPHLR (UniProt Q6QHF9)	0.266	-0.0447
PA2G4_Q9UQ80_179_VAHSFNCTPIEGMLSHQLK (UniProt Q9UQ80)	-0.0769	-0.138
P3H1_Q32P28_670_CAIALWFTLDPR (UniProt Q32P28)	-0.244	0.17
PAICS_P22234_295_ACGNFGIPCELR (UniProt P22234)	-0.117	-0.15
OSBPL1A_Q9BXW6_739+746_CVLNFKPCGLFGK (UniProt Q9BXW6)	-0.0515	-0.377
PADI2_Q9Y2J8_612_PFGPQVEEECCLEMHVR (UniProt Q9Y2J8)	-0.0223	0.222
ORC6_Q9Y5N6_88_SFECLLGLNSNIGIR (UniProt Q9Y5N6)	-0.00209	-0.675
OPLAH_O14841_25_GGTFTDVFAQCPGGHVR (UniProt O14841)	0.212	0.0599
PARK7_Q99497_46_DPVQCSR (UniProt Q99497)	-0.268	0.22
OTX1_P32242_340_LNFNSPDCLDYK (UniProt P32242)	0.0785	0.355
OSBPL9_Q96SU4_577_SILTVPWVELGGECNINCSK (UniProt Q96SU4)	0.18	0.231
OSBPL1A_Q9BXW6_710+711_GTITLELLEHNEAYTWTNPTCCVHNIIVGK (UniProt Q9BXW6)	-0.32	-0.285
PARP1_P09874_429_ASLCISTK (UniProt P09874)	0.139	-0.00144
OSBPL1A_Q9BXW6_340_EDWLEAIEEHSAYSTHYCSQDQLTDEEEEDTVSAADLKK (UniProt Q9BXW6)	0.0682	-0.017
OSGEPL1_Q9H4B0_249_NCDFSFTGLQHVTDK (UniProt Q9H4B0)	-0.0534	-0.189
ORC5_O43913_63_TLELPHVFVNCVECFTLR (UniProt O43913)	0.329	0.316
OSGEPL1_Q9H4B0_390_CPLGVDISK (UniProt Q9H4B0)	-0.246	-0.4
P4HTM_Q9NXG6_156_TLSLKPLLFEIPGFLTDEECR (UniProt Q9NXG6)	0.0255	-0.0987
PALD1_Q9ULE6_65_VAPVVITYNCK (UniProt Q9ULE6)	0.106	-0.15
PALD1_Q9ULE6_631_IPMPDFCAPREEDFDQLLEALR (UniProt Q9ULE6)	0.0385	0.0649
PARP10_Q53GL7_50_LGCGGVLTFREPADAER (UniProt Q53GL7)	-0.164	-0.499
